Literature values in patent publication US20250221957A1, “PS[…] AND THEIR USE FOR TREATING […] AND NE[…] DISORDERS” (Transcend Therapeutics, Inc., priority 2021, published 2025).
For at least one compound, name, drawing or mass did not settle the structure.

Test system: Sprague Dawley rats
Settings: literature (Hibicke 2020; Yang 2013; Tizabi 2012); cited from earlier work

Q: For `CN(C)CCc1c[nH]c2cccc(OP(=O)(O)O)c12` [psilocybin], which “reduction in immobility in the FST, previous reports” value is on record?
A: The value was 67%.
